PubChem BioAssay AID1508588 | Peter MacCallum Cancer Centre | 2020

Screen: 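Which gene losses make BRAF-mutant melanoma cells more responsive to vemurafenib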 (primary screen)
Cells: human WM266.4 melanoma cells (BRAF V600 mutant)
Reagents: siRNA pool against human genes, 40 nM
Timing: 96 h from transfection to read-out
Challenge: vemurafenib 300 nM (about IC25), added 48 h after transfection, for 48 h; comparison arm got DMSO vehicle only
Measurement: 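Cell gain (DAPI nuclei at end minus before drug, mean of two replicates) and medium lactate by absorbance per cell, both as ratio to non-targeting siRNA, also grouped into fold-change classes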
Reading the numbers: cell gain with vemurafenib: higher = more cell gain than with non-targeting siRNA; lactate per cell with vemurafenib: higher = more lactate made per cell
Call rule: 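a knock-down counts as enhancing when its fold-change classes with vehicle and with vemurafenib, taken together, show a stronger drug effect on cell gain or lactate per cell; exact class pairs not stated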
Calls: active = enhances vemurafenib effect; inactive = no enhancement seen
The deposit covers about 18,000 reagents; shown is a part drawn at random. 790 of all reagents (4.4%) were called active. 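Calls rest on a combination of fold-change classes in drug and vehicle arms, not all shown here.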 Some reagents were tested in more than one well and are listed for each.

no.	gene symbol	cell gain with vemurafenib	lactate per cell with vemurafenib	Call
1	MANEAL (mannosidase endo-alpha like)	0.26	1.82	inactive
2	ABHD11 (abhydrolase domain containing 11)	0.93	0.9	inactive
3	SPSB3 (splA/ryanodine receptor domain and SOCS box containing 3)	0.32	1.53	inactive
4	MZB1 (marginal zone B and B1 cell specific protein)	0.99	0.54	inactive
5	CHP2 (calcineurin like EF-hand protein 2)	0.89	0.47	inactive
6	PTPRU (protein tyrosine phosphatase receptor type U)	0.41	1.34	inactive
7	SUSD2 (sushi domain containing 2)	0.28	2.44	inactive
8	BPIFB4 (BPI fold containing family B member 4)	0.63	1.31	inactive
9	AFAP1L2 (actin filament associated protein 1 like 2)	0.52	0.91	inactive
10	ARSD (arylsulfatase D)	0.4	0.7	inactive
11	OPA3 (outer mitochondrial membrane lipid metabolism regulator OPA3)	0.73	1.66	inactive
12	ZNF263 (zinc finger protein 263)	1.19	0.9	inactive
13	DCT (dopachrome tautomerase)	0.16	1.34	inactive
14	SNAPC1 (small nuclear RNA activating complex polypeptide 1)	0.71	0.28	inactive
15	TRAF6 (TNF receptor associated factor 6)	1.1	0.68	inactive
16	RNF25 (ring finger protein 25)	1.03	0.67	inactive
17	GLT1D1 (glycosyltransferase 1 domain containing 1)	1.16	0.6	inactive
18	PPP2R2C (protein phosphatase 2 regulatory subunit Bgamma)	1.04	1.43	inactive
19	TOB1 (transducer of ERBB2, 1)	0.47	0.74	inactive
20	SHC4 (SHC adaptor protein 4)	1.1	0.7	inactive
21	STAT6 (signal transducer and activator of transcription 6)	0.14	1.14	inactive
22	RAB17 (RAB17, member RAS oncogene family)	0.57	0.9	inactive
23	ADH1A (alcohol dehydrogenase 1A (class I), alpha polypeptide)	0.78	0.7	inactive
24	TAMM41	1	0.55	inactive
25	ZSCAN32 (zinc finger and SCAN domain containing 32)	0.66	1.02	inactive
26	ZNF300 (zinc finger protein 300)	0.16	0.27	active
27	BMX (BMX non-receptor tyrosine kinase)	0.74	0.29	inactive
28	FBXL16 (F-box and leucine rich repeat protein 16)	0.85	0.91	inactive
29	DCAF4L2 (DDB1 and CUL4 associated factor 4 like 2)	0.58	0.9	inactive
30	PLEKHA3 (pleckstrin homology domain containing A3)	0.79	1.04	inactive
31	TRIM51G (tripartite motif-containing 51G)	0.98	1.25	inactive
32	TRIM51G (tripartite motif-containing 51G)	0.2	1.42	inactive
33	RNF2 (ring finger protein 2)	0.64	0.8	inactive
34	ALG1 (ALG1 chitobiosyldiphosphodolichol beta-mannosyltransferase)	0.71	0.77	inactive

Just “cell gain with vemurafenib” (2 entries from above):
MZB1 (marginal zone B and B1 cell specific protein)	0.99
CHP2 (calcineurin like EF-hand protein 2)	0.89
